# Measurements: the supplement of paper PMC12819154, “High-throughput peptide-centric local stability assay extends protein–ligand identification to membrane proteins, tissues and bacteria” (Nature Structural & Molecular Biology, 2025)
# Protein sequences, listed by entry. Tags and fused reporters are not part of them. Lines headed by an entry give the natural chain unless they say otherwise; changes in a name come on top.
# UniProt Q3UZ39: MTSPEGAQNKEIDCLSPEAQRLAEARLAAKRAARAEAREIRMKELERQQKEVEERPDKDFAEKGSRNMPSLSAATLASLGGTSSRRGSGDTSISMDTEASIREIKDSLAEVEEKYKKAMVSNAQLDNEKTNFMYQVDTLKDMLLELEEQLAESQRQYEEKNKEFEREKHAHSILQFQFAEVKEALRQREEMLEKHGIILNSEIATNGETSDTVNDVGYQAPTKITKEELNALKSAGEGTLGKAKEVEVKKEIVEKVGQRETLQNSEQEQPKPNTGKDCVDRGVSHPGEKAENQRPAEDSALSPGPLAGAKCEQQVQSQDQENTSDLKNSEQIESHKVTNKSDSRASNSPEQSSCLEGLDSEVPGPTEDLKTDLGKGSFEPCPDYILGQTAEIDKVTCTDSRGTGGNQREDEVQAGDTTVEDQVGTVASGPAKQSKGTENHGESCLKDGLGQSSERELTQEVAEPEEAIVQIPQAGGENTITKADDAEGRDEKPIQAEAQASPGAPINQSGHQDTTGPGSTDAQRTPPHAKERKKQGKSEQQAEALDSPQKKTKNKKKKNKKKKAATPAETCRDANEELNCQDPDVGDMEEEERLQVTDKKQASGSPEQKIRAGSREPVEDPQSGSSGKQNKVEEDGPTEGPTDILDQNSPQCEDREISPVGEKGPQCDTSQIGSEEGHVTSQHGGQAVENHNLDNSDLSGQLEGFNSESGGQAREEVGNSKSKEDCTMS
# UniProt Q3UFY0: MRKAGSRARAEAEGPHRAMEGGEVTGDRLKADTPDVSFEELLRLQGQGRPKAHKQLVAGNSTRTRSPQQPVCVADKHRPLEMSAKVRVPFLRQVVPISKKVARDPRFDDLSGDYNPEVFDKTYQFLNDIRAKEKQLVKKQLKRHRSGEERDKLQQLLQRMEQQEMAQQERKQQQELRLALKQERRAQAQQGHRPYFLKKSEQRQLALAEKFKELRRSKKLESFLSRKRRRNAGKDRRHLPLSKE
# UniProt Q501J6: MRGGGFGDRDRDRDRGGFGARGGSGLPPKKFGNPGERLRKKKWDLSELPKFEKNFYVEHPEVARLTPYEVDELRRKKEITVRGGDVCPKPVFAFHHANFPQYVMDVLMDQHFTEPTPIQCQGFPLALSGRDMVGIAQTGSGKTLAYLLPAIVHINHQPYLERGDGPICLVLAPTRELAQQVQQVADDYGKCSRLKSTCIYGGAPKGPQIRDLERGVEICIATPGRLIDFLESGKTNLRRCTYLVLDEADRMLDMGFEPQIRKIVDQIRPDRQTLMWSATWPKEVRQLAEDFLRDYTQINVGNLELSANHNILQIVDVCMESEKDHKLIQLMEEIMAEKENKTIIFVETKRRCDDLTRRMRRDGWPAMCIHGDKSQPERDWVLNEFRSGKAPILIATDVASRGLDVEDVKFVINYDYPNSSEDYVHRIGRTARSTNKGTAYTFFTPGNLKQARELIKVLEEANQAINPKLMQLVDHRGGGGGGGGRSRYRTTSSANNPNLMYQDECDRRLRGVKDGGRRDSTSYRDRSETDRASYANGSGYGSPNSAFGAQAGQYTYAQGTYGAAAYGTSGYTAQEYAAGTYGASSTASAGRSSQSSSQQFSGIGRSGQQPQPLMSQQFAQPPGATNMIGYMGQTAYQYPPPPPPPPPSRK
# UniProt Q3UH06: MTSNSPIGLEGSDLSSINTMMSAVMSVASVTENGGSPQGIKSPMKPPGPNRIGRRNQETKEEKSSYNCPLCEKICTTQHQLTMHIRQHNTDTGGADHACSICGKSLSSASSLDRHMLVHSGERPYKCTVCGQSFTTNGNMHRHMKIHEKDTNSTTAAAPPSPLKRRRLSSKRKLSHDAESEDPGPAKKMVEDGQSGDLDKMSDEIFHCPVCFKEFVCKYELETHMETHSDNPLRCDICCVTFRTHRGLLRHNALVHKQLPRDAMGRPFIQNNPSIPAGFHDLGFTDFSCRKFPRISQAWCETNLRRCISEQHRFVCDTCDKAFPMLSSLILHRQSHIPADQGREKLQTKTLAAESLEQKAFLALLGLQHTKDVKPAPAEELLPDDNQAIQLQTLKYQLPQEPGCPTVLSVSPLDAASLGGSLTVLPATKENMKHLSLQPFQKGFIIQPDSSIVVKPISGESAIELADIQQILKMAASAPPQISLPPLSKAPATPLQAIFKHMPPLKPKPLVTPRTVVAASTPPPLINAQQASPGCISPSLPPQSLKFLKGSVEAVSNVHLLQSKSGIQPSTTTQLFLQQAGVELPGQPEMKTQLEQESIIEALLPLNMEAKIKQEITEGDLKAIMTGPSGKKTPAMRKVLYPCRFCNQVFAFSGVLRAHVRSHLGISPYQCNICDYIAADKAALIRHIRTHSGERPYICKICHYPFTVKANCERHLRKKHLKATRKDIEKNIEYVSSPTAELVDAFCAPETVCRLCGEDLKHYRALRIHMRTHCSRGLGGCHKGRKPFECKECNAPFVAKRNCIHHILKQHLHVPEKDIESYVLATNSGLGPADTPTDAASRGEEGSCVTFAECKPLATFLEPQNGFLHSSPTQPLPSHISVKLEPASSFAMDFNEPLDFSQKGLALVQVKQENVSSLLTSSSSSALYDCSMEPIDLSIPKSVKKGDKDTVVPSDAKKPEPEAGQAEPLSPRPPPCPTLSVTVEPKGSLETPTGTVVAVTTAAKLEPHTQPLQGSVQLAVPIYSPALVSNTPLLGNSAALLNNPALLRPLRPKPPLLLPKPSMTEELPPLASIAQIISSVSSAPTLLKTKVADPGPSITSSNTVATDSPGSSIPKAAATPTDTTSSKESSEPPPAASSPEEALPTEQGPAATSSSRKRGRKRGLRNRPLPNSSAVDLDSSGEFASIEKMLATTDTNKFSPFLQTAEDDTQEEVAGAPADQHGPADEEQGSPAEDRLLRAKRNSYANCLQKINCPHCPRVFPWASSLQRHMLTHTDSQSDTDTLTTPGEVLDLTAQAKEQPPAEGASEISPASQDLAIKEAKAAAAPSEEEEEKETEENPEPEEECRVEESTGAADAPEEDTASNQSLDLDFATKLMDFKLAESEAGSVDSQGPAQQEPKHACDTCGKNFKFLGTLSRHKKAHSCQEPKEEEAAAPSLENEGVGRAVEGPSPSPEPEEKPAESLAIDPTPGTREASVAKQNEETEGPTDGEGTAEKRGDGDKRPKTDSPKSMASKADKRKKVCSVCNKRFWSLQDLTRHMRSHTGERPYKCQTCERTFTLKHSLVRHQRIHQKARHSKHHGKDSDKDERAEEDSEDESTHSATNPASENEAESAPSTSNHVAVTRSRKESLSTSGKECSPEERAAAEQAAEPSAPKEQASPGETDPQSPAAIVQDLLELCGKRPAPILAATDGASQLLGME
# UniProt Q571I4: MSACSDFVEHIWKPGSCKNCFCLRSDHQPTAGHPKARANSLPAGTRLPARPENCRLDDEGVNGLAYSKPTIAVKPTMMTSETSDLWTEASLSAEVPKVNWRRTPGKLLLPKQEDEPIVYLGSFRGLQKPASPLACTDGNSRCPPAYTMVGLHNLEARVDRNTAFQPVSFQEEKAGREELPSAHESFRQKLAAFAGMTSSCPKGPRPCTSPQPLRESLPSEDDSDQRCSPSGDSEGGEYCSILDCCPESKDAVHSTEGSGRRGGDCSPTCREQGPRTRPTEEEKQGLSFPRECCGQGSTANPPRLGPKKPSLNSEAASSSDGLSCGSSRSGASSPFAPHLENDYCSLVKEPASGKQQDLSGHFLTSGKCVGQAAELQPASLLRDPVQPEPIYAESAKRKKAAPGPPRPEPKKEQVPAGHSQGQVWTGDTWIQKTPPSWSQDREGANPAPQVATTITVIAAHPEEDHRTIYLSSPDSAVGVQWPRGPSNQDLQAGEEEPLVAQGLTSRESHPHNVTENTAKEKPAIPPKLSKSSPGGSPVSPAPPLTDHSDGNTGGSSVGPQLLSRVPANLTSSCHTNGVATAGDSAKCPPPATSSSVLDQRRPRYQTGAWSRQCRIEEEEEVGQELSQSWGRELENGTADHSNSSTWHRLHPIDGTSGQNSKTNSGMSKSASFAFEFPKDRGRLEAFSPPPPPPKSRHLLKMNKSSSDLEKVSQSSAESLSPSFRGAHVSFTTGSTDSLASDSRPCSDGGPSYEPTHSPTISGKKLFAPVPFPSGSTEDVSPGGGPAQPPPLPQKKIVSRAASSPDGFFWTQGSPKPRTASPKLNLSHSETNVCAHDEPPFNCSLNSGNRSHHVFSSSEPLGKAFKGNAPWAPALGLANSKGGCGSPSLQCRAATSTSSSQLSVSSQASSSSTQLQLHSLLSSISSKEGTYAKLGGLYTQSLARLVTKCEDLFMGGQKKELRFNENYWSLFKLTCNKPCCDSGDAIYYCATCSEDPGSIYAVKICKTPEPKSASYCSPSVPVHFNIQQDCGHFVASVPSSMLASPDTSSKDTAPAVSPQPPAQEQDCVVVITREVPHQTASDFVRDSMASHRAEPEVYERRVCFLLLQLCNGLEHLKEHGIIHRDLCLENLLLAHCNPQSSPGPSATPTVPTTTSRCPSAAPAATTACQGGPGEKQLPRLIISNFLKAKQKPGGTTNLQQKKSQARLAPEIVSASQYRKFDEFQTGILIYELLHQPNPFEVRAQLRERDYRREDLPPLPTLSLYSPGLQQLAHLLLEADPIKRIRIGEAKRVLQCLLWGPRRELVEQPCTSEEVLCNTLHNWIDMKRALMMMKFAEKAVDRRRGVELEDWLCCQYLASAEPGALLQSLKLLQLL
# UniProt Q3UNA4: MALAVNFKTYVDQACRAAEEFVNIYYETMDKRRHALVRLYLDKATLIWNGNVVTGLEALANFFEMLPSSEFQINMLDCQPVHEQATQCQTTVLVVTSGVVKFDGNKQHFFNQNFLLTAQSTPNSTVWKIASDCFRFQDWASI
# UniProt Q3UIU2, whole entry: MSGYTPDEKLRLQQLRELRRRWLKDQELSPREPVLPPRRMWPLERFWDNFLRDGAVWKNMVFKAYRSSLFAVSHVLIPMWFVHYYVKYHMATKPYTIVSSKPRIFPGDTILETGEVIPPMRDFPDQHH
# UniProt Q505F1: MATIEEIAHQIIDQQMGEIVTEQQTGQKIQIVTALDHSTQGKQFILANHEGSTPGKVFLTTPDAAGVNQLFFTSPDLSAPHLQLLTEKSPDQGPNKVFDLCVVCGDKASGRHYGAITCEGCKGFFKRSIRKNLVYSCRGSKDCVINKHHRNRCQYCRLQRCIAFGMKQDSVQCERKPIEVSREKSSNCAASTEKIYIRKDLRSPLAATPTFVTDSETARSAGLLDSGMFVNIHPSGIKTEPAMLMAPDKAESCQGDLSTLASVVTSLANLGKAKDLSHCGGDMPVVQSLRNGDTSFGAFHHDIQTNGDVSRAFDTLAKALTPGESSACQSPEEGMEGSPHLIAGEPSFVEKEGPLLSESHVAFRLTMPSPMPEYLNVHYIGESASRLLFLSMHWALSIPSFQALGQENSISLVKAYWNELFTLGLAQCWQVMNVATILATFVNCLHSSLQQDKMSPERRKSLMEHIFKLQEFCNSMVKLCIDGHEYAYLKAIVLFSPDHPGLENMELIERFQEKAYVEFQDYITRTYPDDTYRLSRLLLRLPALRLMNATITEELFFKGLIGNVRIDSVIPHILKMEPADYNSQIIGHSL
# UniProt Q3UZ18: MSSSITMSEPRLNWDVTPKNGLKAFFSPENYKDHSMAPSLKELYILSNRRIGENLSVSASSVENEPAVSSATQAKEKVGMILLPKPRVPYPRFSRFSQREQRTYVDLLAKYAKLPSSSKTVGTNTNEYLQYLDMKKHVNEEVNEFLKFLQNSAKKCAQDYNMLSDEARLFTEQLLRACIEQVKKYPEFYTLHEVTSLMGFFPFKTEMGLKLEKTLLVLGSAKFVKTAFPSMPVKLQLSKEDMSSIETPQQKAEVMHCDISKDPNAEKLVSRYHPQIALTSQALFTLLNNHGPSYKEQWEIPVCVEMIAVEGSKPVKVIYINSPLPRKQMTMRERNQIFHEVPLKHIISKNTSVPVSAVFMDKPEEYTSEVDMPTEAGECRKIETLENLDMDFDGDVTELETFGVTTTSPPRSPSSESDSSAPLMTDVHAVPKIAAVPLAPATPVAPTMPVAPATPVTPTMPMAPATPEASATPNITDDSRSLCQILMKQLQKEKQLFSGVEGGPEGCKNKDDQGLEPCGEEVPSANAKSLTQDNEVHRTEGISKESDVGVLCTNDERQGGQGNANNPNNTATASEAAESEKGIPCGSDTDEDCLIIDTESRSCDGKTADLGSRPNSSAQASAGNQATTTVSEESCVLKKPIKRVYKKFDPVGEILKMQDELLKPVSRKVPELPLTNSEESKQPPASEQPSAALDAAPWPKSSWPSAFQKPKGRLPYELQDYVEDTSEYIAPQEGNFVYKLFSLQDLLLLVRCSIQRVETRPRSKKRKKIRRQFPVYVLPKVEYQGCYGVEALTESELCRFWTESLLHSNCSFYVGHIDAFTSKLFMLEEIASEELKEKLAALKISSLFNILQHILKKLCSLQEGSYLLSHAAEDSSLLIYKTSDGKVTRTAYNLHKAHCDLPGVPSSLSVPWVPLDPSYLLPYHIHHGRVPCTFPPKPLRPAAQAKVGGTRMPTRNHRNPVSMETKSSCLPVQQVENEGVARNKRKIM
# Some of the results follow. Most entries show no effect beyond the scatter of the controls.
# Compound: CN[C@@H]1C[C@H]2O[C@@](C)([C@@H]1OC)n1c3ccccc3c3c4c(c5c6ccccc6n2c5c31)C(=O)NC4 [staurosporine]
# Assay: log2 fold change of tryptic peptide abundance, ligand vs vehicle (limited proteolysis) (log2 ratio); higher = more trypsin-susceptible (destabilized)
# Details: ligand concentration: 20 uM; sample: mouse liver crude lysate; replicate design: treated separately
row,Target,log2 fold change
1,"UniProt Q3UZ39 (peptide sequence: DSLAEVEEKYK, peptide start residue: 106)",0.595
2,"UniProt Q3UFM5 (peptide sequence: ASAAQPK, peptide start residue: 151)",0.421
3,"UniProt Q3UR85 (peptide sequence: AGSVPHKKR, peptide start residue: 734)",-0.209
4,"UniProt Q3USH5 (peptide sequence: TLPILEGKPPERPSNR, peptide start residue: 726)",0.31
5,"UniProt Q3UFY0 (peptide sequence: AEAEGPHR, peptide start residue: 10)",0.943
6,"UniProt Q52KB6 (peptide sequence: TLNEITTVTDR, peptide start residue: 2052)",0.444
7,"UniProt Q3UYI5 (peptide sequence: GNLINFEKR, peptide start residue: 442)",0.406
8,"UniProt Q3UD01 (peptide sequence: DFGIQPVEDKGACR, peptide start residue: 58)",-0.201
9,"UniProt Q505D7 (peptide sequence: QVSKPLANR, peptide start residue: 18)",-0.0979
10,"UniProt Q4G0F8 (peptide sequence: ELLCQVVK, peptide start residue: 521)",0.345
11,"UniProt Q3UHG7 (peptide sequence: GGSLPPVYWLPSIHR, peptide start residue: 206)",-0.352
12,"UniProt Q3U6N9 (peptide sequence: AATHSAQVQLVSEATRK, peptide start residue: 176)",0.183
13,"UniProt Q3URQ7 (peptide sequence: LRTGLFNK, peptide start residue: 90)",-0.413
14,"UniProt Q3UHI0 (peptide sequence: SFSGPSNLGK, peptide start residue: 142)",0.459
15,"UniProt Q3U3N6 (peptide sequence: LPCHSSQDLQTDLQK, peptide start residue: 541)",0.349
16,"UniProt Q3UBG2 (peptide sequence: LAHAMMEAFKK, peptide start residue: 178)",0.784
17,"UniProt Q501J6 (peptide sequence: LMQLVDHR, peptide start residue: 469)",0.164
18,"UniProt Q3U8K7 (peptide sequence: GAHSQGDSLPCTYTTR, peptide start residue: 525)",-0.523

# Shown with bars between the fields: entries from further up
row | Target | log2 fold change
3 | UniProt Q3UR85 (peptide sequence: AGSVPHKKR, peptide start residue: 734) | -0.209
11 | UniProt Q3UHG7 (peptide sequence: GGSLPPVYWLPSIHR, peptide start residue: 206) | -0.352

# (listing goes on)

row,Target,log2 fold change
1,"UniProt Q3UH06 (peptide sequence: IKQEITEGDLK, peptide start residue: 612)",0.369
2,"UniProt Q3ULB5 (peptide sequence: RELLFNEVVIMR, peptide start residue: 362)",-0.686
3,"UniProt Q56A06 (peptide sequence: NSEMKPSFASK, peptide start residue: 362)",-0.0762
4,"UniProt Q571I4 (peptide sequence: GGCGSPSLQCR, peptide start residue: 881)",-0.178
5,"UniProt Q3UKU1 (peptide sequence: YIAIVSYEQR, peptide start residue: 531)",0.0293
6,"UniProt Q3UNA4 (peptide sequence: TYVDQACR, peptide start residue: 9)",0.0728
7,"UniProt Q3USB7 (peptide sequence: KTVSFSSMPSEKK, peptide start residue: 93)",0.209
8,"UniProt Q3UIU2 (peptide sequence: SGYTPDEKLR, peptide start residue: 2)",-0.153
9,"UniProt Q505F1 (peptide sequence: EGPLLSESHVAFR, peptide start residue: 352)",0.383
10,"UniProt Q3UE17 (peptide sequence: RPPAATGGLR, peptide start residue: 362)",-0.019
11,"UniProt Q3ULW8 (peptide sequence: MNHFTCLEDAK, peptide start residue: 109)",-0.482
12,"UniProt Q3ULF4 (peptide sequence: EGGFSAFNQLK, peptide start residue: 281)",0.41
13,"UniProt Q3U4I7 (peptide sequence: ALSTLKPLLK, peptide start residue: 198)",0.0503
14,"UniProt Q3UZ18 (peptide sequence: SSWPSAFQKPK, peptide start residue: 701)",0.273
15,"UniProt Q3UHH2 (peptide sequence: KGEQPLLLTNAELK, peptide start residue: 649)",0.104
16,"UniProt Q3UEG6 (peptide sequence: QHLSPVDTAYFR, peptide start residue: 71)",-0.262
17,"UniProt Q3UPP8 (peptide sequence: MEISQLTR, peptide start residue: 412)",0.327
18,"UniProt Q3V209 (peptide sequence: GEMEPSLEHLLDIQGLPK, peptide start residue: 127)",0.217
